Laboratory results taken from the supplement of paper PMC10849652.
This is one part of the list.

The chains behind the UniProt entries cited, without tags or fusion partners. Where a name states a change or a piece, a line headed by the entry shows the natural chain unless it says otherwise.
UniProt Q8NAF0: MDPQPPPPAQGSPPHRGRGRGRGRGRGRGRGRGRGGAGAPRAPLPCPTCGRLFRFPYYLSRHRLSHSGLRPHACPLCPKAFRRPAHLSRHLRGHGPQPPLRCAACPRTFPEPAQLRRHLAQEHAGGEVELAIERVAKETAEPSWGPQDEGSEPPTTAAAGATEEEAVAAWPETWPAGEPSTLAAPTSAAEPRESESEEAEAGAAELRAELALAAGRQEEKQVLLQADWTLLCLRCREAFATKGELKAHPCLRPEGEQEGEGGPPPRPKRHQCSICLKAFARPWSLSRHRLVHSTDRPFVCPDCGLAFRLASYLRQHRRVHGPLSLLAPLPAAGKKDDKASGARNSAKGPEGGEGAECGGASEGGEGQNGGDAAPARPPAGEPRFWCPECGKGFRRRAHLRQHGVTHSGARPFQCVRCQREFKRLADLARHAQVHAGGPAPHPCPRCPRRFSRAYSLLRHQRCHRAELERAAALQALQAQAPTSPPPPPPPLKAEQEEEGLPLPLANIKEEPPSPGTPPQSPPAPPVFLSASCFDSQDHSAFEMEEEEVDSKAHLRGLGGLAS
UniProt Q15649: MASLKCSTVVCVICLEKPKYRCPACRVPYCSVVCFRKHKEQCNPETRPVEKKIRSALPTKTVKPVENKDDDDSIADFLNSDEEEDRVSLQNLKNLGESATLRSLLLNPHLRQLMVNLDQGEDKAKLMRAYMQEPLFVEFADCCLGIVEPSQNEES
UniProt J3KR51, whole entry, looked up: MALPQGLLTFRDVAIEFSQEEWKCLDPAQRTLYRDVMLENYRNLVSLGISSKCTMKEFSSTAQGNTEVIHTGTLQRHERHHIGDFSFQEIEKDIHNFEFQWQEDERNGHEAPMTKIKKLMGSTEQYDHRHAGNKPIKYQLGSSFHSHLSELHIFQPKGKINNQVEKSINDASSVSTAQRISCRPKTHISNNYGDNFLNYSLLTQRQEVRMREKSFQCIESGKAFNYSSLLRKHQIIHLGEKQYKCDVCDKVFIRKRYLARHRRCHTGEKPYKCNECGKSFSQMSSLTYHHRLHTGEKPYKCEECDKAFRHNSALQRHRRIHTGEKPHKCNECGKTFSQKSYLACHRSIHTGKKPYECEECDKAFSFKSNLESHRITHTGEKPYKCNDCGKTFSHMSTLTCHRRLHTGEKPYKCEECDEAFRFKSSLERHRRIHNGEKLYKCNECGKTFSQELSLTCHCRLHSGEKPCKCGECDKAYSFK
UniProt Q969S3: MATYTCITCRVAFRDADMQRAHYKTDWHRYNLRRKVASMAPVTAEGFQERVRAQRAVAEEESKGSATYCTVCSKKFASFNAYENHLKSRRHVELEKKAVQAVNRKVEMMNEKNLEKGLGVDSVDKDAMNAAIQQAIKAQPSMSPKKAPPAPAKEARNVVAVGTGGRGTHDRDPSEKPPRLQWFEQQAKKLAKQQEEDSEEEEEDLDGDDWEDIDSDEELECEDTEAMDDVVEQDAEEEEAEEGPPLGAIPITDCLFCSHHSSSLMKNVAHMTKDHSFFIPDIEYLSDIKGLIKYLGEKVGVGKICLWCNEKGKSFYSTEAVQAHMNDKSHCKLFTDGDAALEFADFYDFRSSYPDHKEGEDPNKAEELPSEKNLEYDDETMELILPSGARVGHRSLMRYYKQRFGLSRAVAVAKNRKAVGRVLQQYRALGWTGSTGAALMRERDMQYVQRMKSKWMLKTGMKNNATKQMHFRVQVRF
UniProt O43257, whole entry, looked up: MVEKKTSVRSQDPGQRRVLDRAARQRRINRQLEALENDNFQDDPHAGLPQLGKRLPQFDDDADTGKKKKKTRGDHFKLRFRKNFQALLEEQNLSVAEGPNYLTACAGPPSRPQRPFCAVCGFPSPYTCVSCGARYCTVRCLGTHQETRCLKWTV
UniProt Q6DD87: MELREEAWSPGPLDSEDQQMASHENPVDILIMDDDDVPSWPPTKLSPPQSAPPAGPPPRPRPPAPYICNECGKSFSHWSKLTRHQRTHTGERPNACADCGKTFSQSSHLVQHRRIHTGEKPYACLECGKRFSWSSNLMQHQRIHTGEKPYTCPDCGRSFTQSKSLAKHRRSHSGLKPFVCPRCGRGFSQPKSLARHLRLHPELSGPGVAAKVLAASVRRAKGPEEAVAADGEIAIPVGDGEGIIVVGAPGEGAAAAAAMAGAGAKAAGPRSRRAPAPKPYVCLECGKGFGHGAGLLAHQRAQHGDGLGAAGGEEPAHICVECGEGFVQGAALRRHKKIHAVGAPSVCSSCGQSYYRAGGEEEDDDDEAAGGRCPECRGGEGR
UniProt O15014: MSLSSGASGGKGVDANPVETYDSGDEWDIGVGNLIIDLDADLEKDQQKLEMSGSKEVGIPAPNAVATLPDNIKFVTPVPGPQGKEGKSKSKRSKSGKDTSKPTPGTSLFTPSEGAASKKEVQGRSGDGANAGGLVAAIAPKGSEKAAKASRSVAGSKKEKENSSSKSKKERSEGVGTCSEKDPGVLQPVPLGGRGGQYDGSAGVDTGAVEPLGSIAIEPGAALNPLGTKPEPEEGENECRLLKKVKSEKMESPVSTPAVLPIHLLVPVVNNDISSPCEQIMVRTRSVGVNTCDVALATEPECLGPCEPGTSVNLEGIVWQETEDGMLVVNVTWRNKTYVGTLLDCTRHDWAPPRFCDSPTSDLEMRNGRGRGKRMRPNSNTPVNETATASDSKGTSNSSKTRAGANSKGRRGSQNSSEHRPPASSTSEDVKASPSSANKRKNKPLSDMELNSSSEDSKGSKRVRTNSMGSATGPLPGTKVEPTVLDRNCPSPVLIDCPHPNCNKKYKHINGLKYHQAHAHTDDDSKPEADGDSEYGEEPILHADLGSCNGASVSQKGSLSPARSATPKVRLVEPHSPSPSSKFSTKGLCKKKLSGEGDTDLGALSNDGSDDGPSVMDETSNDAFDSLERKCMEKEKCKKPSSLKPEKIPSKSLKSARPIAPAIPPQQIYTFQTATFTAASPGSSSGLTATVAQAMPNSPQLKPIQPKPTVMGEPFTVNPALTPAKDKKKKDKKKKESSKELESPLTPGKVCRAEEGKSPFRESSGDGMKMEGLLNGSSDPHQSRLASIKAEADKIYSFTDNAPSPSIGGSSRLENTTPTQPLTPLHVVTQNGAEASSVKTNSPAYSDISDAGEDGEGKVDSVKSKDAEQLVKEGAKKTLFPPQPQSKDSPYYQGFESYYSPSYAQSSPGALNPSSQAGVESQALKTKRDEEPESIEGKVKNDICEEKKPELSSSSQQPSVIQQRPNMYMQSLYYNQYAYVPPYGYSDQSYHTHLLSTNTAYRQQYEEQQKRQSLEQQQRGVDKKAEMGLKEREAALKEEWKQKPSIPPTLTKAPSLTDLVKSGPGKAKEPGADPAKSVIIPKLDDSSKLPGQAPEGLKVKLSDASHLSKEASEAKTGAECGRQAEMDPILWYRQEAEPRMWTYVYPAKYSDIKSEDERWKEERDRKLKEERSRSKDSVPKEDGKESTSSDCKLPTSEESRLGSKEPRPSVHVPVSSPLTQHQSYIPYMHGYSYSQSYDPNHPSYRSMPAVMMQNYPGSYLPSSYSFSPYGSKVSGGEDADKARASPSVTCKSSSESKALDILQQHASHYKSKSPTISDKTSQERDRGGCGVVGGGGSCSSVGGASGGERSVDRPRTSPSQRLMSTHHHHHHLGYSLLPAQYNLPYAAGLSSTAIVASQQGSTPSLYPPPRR
UniProt Q96NC0: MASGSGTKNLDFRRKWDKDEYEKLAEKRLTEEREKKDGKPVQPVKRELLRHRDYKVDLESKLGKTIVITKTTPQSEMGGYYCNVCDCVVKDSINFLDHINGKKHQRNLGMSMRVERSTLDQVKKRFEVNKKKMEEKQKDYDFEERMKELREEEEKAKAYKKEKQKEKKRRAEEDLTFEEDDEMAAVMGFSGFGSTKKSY
UniProt Q9H582: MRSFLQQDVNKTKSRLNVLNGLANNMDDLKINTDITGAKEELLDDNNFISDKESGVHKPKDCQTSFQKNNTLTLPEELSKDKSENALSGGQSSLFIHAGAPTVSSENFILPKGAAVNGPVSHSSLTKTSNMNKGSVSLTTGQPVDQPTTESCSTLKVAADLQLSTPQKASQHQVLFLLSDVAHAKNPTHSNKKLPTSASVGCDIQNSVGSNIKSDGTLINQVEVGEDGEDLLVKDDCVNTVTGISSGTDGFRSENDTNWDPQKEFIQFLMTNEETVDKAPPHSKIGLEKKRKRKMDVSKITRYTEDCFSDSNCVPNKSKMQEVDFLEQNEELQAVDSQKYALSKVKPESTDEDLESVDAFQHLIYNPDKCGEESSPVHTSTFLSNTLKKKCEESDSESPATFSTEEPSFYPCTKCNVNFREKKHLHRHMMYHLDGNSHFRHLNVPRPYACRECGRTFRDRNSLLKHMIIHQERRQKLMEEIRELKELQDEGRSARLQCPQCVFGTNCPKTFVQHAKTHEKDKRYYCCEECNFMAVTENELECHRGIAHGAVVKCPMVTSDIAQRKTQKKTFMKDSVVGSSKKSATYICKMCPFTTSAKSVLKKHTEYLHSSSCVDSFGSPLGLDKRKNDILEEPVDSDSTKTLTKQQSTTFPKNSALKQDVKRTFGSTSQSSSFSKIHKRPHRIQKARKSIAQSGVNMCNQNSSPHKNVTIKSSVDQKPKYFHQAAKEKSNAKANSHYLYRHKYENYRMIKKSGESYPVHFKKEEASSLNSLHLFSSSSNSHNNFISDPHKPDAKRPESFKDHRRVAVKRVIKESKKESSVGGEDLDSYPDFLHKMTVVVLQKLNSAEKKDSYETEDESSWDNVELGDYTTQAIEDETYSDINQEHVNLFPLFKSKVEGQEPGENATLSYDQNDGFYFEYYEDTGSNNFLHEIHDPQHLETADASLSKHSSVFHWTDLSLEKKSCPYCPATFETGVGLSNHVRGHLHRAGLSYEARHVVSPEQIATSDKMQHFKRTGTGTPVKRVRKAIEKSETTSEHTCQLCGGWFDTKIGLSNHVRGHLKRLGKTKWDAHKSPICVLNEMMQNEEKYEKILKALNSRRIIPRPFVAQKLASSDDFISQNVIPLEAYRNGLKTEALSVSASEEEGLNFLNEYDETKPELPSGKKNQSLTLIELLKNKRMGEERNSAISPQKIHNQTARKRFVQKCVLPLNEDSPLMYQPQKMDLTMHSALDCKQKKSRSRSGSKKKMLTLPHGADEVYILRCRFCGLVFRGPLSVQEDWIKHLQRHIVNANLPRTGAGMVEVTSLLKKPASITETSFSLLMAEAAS
UniProt Q86UK7: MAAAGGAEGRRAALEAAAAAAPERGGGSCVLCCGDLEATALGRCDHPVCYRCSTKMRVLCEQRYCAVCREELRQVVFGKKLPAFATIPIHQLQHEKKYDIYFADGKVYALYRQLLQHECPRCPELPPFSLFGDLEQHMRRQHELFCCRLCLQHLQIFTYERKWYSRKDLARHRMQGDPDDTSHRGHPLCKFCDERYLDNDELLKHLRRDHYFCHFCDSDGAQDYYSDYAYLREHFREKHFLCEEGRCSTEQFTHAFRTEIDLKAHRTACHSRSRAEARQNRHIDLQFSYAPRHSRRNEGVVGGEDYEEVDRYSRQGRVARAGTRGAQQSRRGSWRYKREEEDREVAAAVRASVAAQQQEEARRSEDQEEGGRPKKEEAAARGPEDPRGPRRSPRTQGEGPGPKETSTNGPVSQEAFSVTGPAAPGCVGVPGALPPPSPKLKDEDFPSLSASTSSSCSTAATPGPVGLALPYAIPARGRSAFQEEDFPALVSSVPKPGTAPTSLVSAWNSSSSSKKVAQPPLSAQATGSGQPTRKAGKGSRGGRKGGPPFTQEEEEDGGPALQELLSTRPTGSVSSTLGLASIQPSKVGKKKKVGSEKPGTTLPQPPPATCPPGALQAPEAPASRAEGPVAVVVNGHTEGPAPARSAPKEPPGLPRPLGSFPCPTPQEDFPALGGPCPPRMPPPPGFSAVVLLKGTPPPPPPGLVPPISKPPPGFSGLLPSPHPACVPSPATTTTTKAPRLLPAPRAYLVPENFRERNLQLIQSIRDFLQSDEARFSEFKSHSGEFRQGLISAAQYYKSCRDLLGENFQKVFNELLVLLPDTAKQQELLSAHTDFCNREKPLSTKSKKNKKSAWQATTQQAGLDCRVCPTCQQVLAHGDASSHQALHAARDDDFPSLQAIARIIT
UniProt Q8IYN0: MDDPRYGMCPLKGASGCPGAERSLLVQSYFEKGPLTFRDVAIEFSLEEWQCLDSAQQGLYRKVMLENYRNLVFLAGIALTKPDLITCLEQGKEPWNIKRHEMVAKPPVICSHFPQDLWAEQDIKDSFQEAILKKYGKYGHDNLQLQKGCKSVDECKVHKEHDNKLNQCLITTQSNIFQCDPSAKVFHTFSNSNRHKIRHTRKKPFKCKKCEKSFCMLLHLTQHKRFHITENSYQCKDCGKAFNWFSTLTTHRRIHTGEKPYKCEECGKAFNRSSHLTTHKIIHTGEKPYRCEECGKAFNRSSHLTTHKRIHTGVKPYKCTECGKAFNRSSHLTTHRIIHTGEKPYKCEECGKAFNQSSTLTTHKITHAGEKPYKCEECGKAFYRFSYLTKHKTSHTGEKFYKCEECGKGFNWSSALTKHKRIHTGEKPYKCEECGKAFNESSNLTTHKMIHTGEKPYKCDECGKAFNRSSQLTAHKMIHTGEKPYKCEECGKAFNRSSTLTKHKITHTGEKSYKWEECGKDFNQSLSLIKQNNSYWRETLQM

What was measured:
Experiment in all cases: log2 fold change, soluble protein after heating vs DMSO (PISA); higher = thermal stabilisation; K562 lysate, 10 uM; active = over 0.2 and 3.5 SD of the protein, either way, in both replicates (recomputed)
[1] = compound: C1=CC=C(C=C1)[C@H](COC2=CC3=C(C=C2)NC(=O)N3)NC(=O)C4=CC=CN(C4=O)CC5=CC(=C(C=C5)F)F
Procedure, shortened: (§1)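 Quantification was by TMTpro 16plex LC-MS/MS with equalised channel sums, applied to the supernatant after 21,000xg for 90 min. Samples were crude K562 extract at 1 mg/mL protein in PBS pH 7.4 with 1 mM MgCl2, treated with 10 μM compound for 30 min, heated for 3 min across 48°C-58°C, pooled and brought to 0.5% NP-40 at 4°C. Values are log-two fold changes in thermal stability relative to solvent controls, from duplicates.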

[2] = compound: CC1=C(SC2=C1C(=N[C@H](C3=NN=C(N32)C)CC(=O)N)C4=CC=C(C=C4)Cl)C
Procedure, shortened: as §1

[3] = compound: CC1=C2C(=CC=C1)N=C(N(C2=O)C3=CC=CC=C3C)CN4C=NC5=C(N=CN=C54)N
Procedure, shortened: as §1

[4] = compound: Cc1sc2c(c1C)C(c1ccc(Cl)cc1)=N[C@@H](CC(=O)OC(C)(C)C)c1nnc(C)n1-2
Procedure, shortened: as §1

[5] = compound: c1ccc([C@@H]2C[C@H]2NC2CCNCC2)cc1
Procedure, shortened: as §1

Measured: log2 fold change

ZNF579 (UniProt Q8NAF0)
inactive: [1] 0.064 | [2] 0.038 | [3] -0.104 | [4] -0.188 | [5] -0.093

ZNHIT3 (UniProt Q15649)
inactive: [1] 0.037 | [2] 0.064 | [3] -0.005 | [4] -0.009 | [5] -0.194

ZNFX1 (UniProt Q9P2E3)
inactive: [1] 0.018 | [2] 0.062 | [3] 0.072 | [4] 0.051 | [5] 0.086

ZNF385A (UniProt Q96PM9)
inactive: [1] 0.034 | [2] -0.09

ZNF225 (UniProt Q9UK10)
inactive: [1] -0.08 | [2] 0.136 | [3] 0.04 | [4] -0.182

ZNF525 (UniProt J3KR51)
inactive: [1] -0.086 | [2] -0.059 | [3] -0.001

ZNF561-AS1 (UniProt K7EIQ3)
inactive: [1] 0 | [2] 0.093

ZNF217 (UniProt O75362)
inactive: [1] -0.037 | [2] 0.075 | [3] 0.129 | [4] 0.053 | [5] 0

ZYX (UniProt Q15942)
inactive: [1] 0.022 | [2] -0.008 | [3] -0.041 | [4] -0.034 | [5] -0.016

ZNF622 (UniProt Q969S3)
inactive: [1] 0.045 | [2] 0.034 | [3] 0 | [4] 0.012 | [5] 0.039

ZNHIT1 (UniProt O43257)
inactive: [1] -0.099 | [2] 0.003

ZNF417 (UniProt Q8TAU3)
inactive: [1] -0.072 | [2] 0.073

ZNF207 isoform 2 (UniProt O43670)
inactive: [1] 0.063 | [2] 0.012 | [3] -0.134 | [4] -0.175

ZNRD2 (UniProt G3V1B8)
inactive: [1] -0.217 | [2] 0 | [3] 0.088 | [4] 0.048 | [5] -0.083

ZNF787 (UniProt Q6DD87)
inactive: [1] 0.114 | [2] -0.151 | [3] -0.053 | [4] -0.055 | [5] -0.095

ZMYM1 (UniProt Q5SVZ6)
inactive: [1] 0.009 | [2] 0.099 | [3] -0.012 | [4] 0 | [5] -0.2

ZNF609 (UniProt O15014)
inactive: [1] 0.009 | [2] 0.008 | [3] 0.078 | [4] -0.047 | [5] -0.082

ZMIZ2 (UniProt Q8NF64)
inactive: [1] 0.036 | [2] -0.056 | [3] 0.076 | [4] -0.082 | [5] -0.001

ZMAT2 (UniProt Q96NC0)
inactive: [1] 0.037 | [2] -0.01 | [3] 0.03 | [4] 0.03 | [5] 0.013

ZNF277 (UniProt Q9NRM2)
inactive: [1] -0.042 | [2] 0.049 | [3] 0.004 | [4] 0.042 | [5] -0.003

ZNF460 (UniProt Q14592)
inactive: [1] -0.069 | [2] 0.081 | [3] -0.058

ZNF318 (UniProt Q5VUA4)
inactive: [1] -0.017 | [2] 0.133 | [3] 0 | [4] 0.018 | [5] 0.038

ZMYM2 (UniProt Q9UBW7)
inactive: [1] 0.105 | [2] 0.07 | [3] 0.062 | [4] 0.015 | [5] 0.183

ZNF644 (UniProt Q9H582)
inactive: [1] 0 | [2] 0.003 | [3] -0.098 | [4] -0.009 | [5] 0.01

2 entries drawn at random from those above:
ZNF417 (UniProt Q8TAU3)
inactive: [1] -0.072 | [2] 0.073

ZNF217 (UniProt O75362)
inactive: [1] -0.037 | [2] 0.075 | [3] 0.129 | [4] 0.053 | [5] 0

Following part

ZNF598 isoform 3 (UniProt Q86UK7)
inactive: [1] -0.037 | [2] -0.014 | [3] 0.006 | [4] 0.034 | [5] 0.025

ZNF445 (UniProt P59923)
inactive: [1] 0.017 | [2] 0.074 | [3] 0.029 | [4] -0.058

ZNF100 (UniProt Q8IYN0)
inactive: [1] -0.092 | [2] -0.202

ZNF24 (UniProt P17028)
inactive: [1] 0.092 | [2] -0.014 | [3] 0.032 | [4] -0.037 | [5] -0.058
